From patent US20250136997A1, “COMPOSITIONS FOR SEQUESTERING ISOAMYL AMINE AND METHODS OF USE THEREFOR” (University of Louisville Research Foundation, Inc., priority 2023, published 2025)

Experiment: Analysis of metabolites in mice gut feces using LC-MS
Parameters: species or system mouse
Conditions: aged mice brains, microglia

With `CC(C)CCN` [IAA, isoamylamine] as the molecule, how does the “correlation with the expression of S100A8 (linear regression)” value read?
Its value is “significantly positively correlated”.
